Test results: US20040267283A1, “Method, device and kit for body decoration” (priority 2003, published 2004)
Where two headings read alike, the source gives them in different places.

Tests used:
human skin = assay: In-vivo human skin tattoo with imprinted hydrogel patches; conditions: human study, 50 mg/ml in ddw
swine ear skin = conditions: Active
Method: An in-vitro skin penetration study was conducted to determine which combination of parameters results in the maximum amount of active substance, e.g., color formulation, being delivered into the skin, i.e., the dermis and epidermis, but not through the skin, i.e., beneath the epidermis.
The in-vitro skin penetration study generally included the following test procedure. Decoration ink, as in embodiments of the present invention, was applied on a piece of swine ear skin. The swine skin was excised to full thickness (epidermis and dermis) to an approximate depth of 500-1000 μm. The skin was removed from the ear within a few hours of sacrifice and was either used immediately or stored frozen for a period of no longer than 2-3 weeks. The ink-applied swine skin was thereafter placed in vertical diffusion cells, in which the skin membrane separated the physically and electrically isolated anode and cathode chambers from the receptor phase. See, e.g., P. Glikfeld, et al., “A new system for in vitro studies of iontophoresis,” Pharma. Res. 5: 443-446 (1988). Alternatively, the swine skin may be placed in modified side-by-side cells of a newer design. The vertical cells' receptor compartment contained physiologically buffered saline (PBS) at pH 7. Then, two electrodes, i.e., anode and cathode, were placed on the swine skin over the ink. The exposed area of skin in each electrode chamber was 0.64-0.67 cm^2.
In each experiment of the study, preparation with electric current (“Active”) and without electric current (“Passive”) were tested. Exposure period was typically 20-30 minutes, but can be altered according to the designated time of patch application. Six replicates were performed per experiment. Prior to each experiment, the viability and integrity of the swine skin barrier function was checked via a measurement of transepidermal water loss (TEWL). Perturbation of the skin barrier, either by physical disruption, chemical attack, or because of disease, could severely compromise the role of the stratum corneum (“SC”).
At the end of the exposure period, the entire receptor compartment was drained and the solution reserved for subsequent analysis of the dye(s) and/or pigment(s). The swine skin was then removed from the receptor compartment, and the skin's surfaces carefully cleaned and dried. Subsequently, the stratum corneum (“SC”) beneath the cathode chamber was removed by 15 adhesive tape strippings (“TS”). The depth of penetration was measured by noting the number of tape strippings required to remove the ink. The ink was extracted from the respective tapes and assayed to yield a total uptake into the SC. […] The ink was determined quantitatively using customary analytical procedures (e.g., HPLC, UV-Vis spectrum, GC, radiolabeled detection, etc.), as applicable.
The in-vitro skin penetration study was conducted using an in-vitro modified Franz Cell System, equipped with the necessary components to exert micro-powered electric current, which can simulate the expected effect of the iontophoretic patch of the present invention.
In these experiments, the enhancing effect of iontophoresis and/or electroosmosis on skin penetration of different dyes was assessed. The assessment included evaluation of solubility and conductivity of the dyes followed by iontophoresis versus passive in-vitro skin penetration. The following properties were measured to determine the enhancing effect of iontophoretic induction on the dyes' skin penetration: uniformity of the dyeing by observation; and penetration depth by tape stripping.
The experiments performed in the first part of the study are described below. In these experiments, Hydroxyethyl cellulose with NaCl may comprise hydroxyethyl cellulose (Natrosol 250 HHBR, Hercules) at 1% wt., NaCl at 10% wt., and water at 98% wt.

swine skin = assay: In-vitro skin penetration, hydrogel patches on stretched skin (vertical diffusion cells without cell tops), tape stripping; type: in vitro ADME; conditions: Active, heart shape, current = 500 μA/cm^2, skin cleaned with 10% lactic acid
Method: In the second part of the in-vitro skin penetration study, the color application included the use of a hydrogel patch and dye FD&C Red no. 40 and additional dyes, Acid Blue 1 (Blue V) and Indocyanine green, on the swine skin. All chemicals used were analytical grade, obtained from standard supply houses (Sigma, VWR, etc.). […] In these experiments, the depth of penetration was tested for the additional dyes using iontophoresis and/or electroosmosis. Additionally, extensive work was done in order to establish a shaped tattoo that is sharp and has strong color imprint. The experiments were also directed to the effect of the application duration on the tattoo life span. The following properties of the tattoo were measured to determine the effects of iontophoresis on the dyes and pigments' skin penetration: uniformity of the dyeing by observation; penetration depth by tape stripping; and water durability by washing the skin with tap water.
The experiments performed in this second part of the study are described below. Experiments 2.1-2.8 and 2.10-2.14 were conducted on in-vitro swine skin. Experiments 2.9, 2.15, and 2.16 were conducted on in-vivo human skin. FIGS. 6-14 illustrate the body decoration results from the experiments.
This experiment was conducted to determine the dye penetration depth of stretched skin, as would be the case on the subject's body area. In the vertical diffusion cells without the cell tops, the skin was stretched with the cell clamps. To increase the water content of the hydrogel in the patches, the hydrogel was soaked with ddw for 2 minutes. Excess water was then absorbed. Tissue paper heart-shaped pieces were soaked in Blue V solution (100 mg/ml in ddw). The blue heart shapes were placed on the patches' hydrogel and removed a few seconds later, leaving a blue heart-shaped imprint on the hydrogel. The hydrogel patches with the blue heart-shaped imprint were placed on the skin after the skin was cleaned with 10% lactic acid. […] The dye penetration depth was determined by tape stripping. […]

[1] = Exp 2.15, Active, star shape, with polyester as a partition, 0.04 mAmp, 40 min, skin cleaned with 10% lactic acid
[2] = Exp 2.16, Active With polyester, star shape, 0.04 mAmp, 60 min, skin cleaned with 10% lactic acid
[3] = Exp 2.16, Active Without polyester, star shape, 0.04 mAmp, 60 min, skin cleaned with 10% lactic acid
[4] = Exp 2.9, Active, cathode, heart shape, voltage = 3 volt, 20 min, forearm cleaned with 10% lactic acid
[5] = Exp 1.10, Blue no. 1 40 mg/ml in ethanol + 20% ddw, Yellow no. 6 and Red no. 40 20 mg/ml in ethanol + 30% ddw, dried color + gel, current limited to 335 mA (500 μA/cm^2), skin without Stratum Corneum
[6] = Exp 1.8, 20 mg/ml in ethanol + 30% ddw, dried color + gel, current unlimited, skin cleaned with 70% ethanol, full skin

`CCN(CC)c1ccc(C(=C2C=CC(=[N+](CC)CC)C=C2)c2ccc(S(=O)(=O)[O-])cc2S(=O)(=O)[O-])cc1.[Na+]` [Blue V, Acid Blue 1] was tested, and the “Color strength of the dyeing by observation” value (“Color strength of the dyeing” below) (human skin; [1]) was “Strong color”, the “Uniformity of the dyeing by observation” value (human skin; [1]) was “Uniform star shape dyeing” and the “Color strength of the dyeing” value (human skin; [2]) was “Strong color”. The “Uniformity of the dyeing by observation” value (human skin; [2]) was “Uniform star shape dyeing”, the “Color strength of the dyeing” value (human skin; [3]) was “Strong color” and the “Uniformity of the dyeing by observation” value (human skin; [3]) was “Uniform star shape dyeing”. For the same compound, the “Color strength of the dyeing” value (human skin; [4]) was “Strong color”, the “Uniformity of the dyeing by observation” value (human skin; [4]) was “Uniform heart shape” and the “Uniformity of the dyeing by observation” value (swine ear skin; Exp 2.1, 20 mg/ml in ethanol with 20% ddw, dried dye + gel, current = 500 μA/cm^2, skin cleaned with 10% lactic acid, 30 min) was “Uniform dyeing”. For the same compound, the “Uniformity of the dyeing by observation” value (swine skin; Exp 2.13, hydrogel with NaCl, 100 mg/ml in ddw with 10% ethanol, 20 min) was “Uniform dyeing”, the “Uniformity of the dyeing by observation” value (swine skin; Exp 2.6, 100 mg/ml in ddw, stretched skin, hydrogel soaked with ddw 2 minutes, 30 min) was “Uniform sharp heart shape” and the “Uniformity of the dyeing by observation” value (swine skin; Exp 2.8, 100 mg/ml in ddw, hydrogel soaked in ddw for only few seconds) was “Uniform heart shape”.
`CCN(Cc1cccc(S(=O)(=O)[O-])c1)c1ccc(C(=C2C=CC(=[N+](CC)Cc3cccc(S(=O)(=O)[O-])c3)C=C2)c2ccccc2S(=O)(=O)[O-])cc1.[Na+].[Na+]` [Blue no. 1, FD&C Blue no. 1] was tested, and the “Uniformity of the dyeing by observation” value (swine ear skin; [5]) was “Spot dyeing”, the “Uniformity of the dyeing by observation” value (swine ear skin; Exp 1.4, 40 mg/ml in ethanol + 20% ddw, dried color + gel, current unlimited, full skin, 30 min) was “Spot dyeing” and the “Uniformity of the dyeing by observation” value (swine ear skin; Exp 1.6, 40 mg/ml in ethanol + 20% ddw, dried color + gel, current unlimited, skin without Stratum Corneum) was “Uniform dyeing”. For the same compound, the “Uniformity of the dyeing by observation” value (swine ear skin; Exp 1.7, 40 mg/ml in ethanol + 20% ddw, dried color + gel, current unlimited, skin cleaned with Acetone, skin without Stratum Corneum) was “Spot dyeing”.
With `CC1(C)C(/C=C/C=C/C=C/C=C2\N(CCCCS(=O)(=O)O)c3ccc4ccccc4c3C2(C)C)=[N+](CCCCS(=O)(=O)[O-])c2ccc3ccccc3c21` [Green, Indocyanine green, reference compound] the “Uniformity of the dyeing by observation” value (swine ear skin; Exp 2.10, 25 mg/ml in 100% ethanol, dried dye + gel, current = 500 μA/cm^2, skin cleaned with 10% lactic acid, 30 min) was “Uniform dyeing” and the “Uniformity of the dyeing by observation” value (swine ear skin; Exp 2.7, 2 mg/ml in ethanol with 40% ddw, dried dye + gel, current = 500 μA/cm^2, skin cleaned with 10% lactic acid, 30 min) was “Uniform dyeing”.
`COc1cc(S(=O)(=O)[O-])c(C)cc1N=Nc1c(O)ccc2cc(S(=O)(=O)[O-])ccc12.[Na+].[Na+]` [Red no. 40, FD&C Red no. 40] was tested, and the “Uniformity of the dyeing by observation” value (swine ear skin; [5]) was “Spot dyeing”, the “Uniformity of the dyeing by observation” value (swine ear skin; Exp 1.11, 20 mg/ml in ethanol + 30% ddw, dried color + gel, current limited to 335 mA (500 μA/cm^2), skin cleaned with 10% lactic acid, full skin) was “Spot dyeing” and the “Uniformity of the dyeing by observation” value (swine ear skin; Exp 1.12, 20 mg/ml in ethanol + 30% ddw, dried color + gel, current limited to 335 mA (500 μA/cm^2), skin cleaned with 5% lactic acid, full skin) was “Spot dyeing”. The “Uniformity of the dyeing by observation” value (swine ear skin; Exp 1.13, 20 mg/ml in ethanol + 30% ddw, dried color + hydrogel, current limited to 335 mA, after 7 min voltage limited to 3 V, skin without Stratum Corneum) was “Spot dyeing” and the “Uniformity of the dyeing by observation” value (swine ear skin; [6]) was “Spot dyeing”.
With `O=S(=O)([O-])c1ccc(N=Nc2c(O)ccc3cc(S(=O)(=O)[O-])ccc23)cc1.[Na+].[Na+]` [Yellow no. 6, FD&C Yellow no. 6] the “Uniformity of the dyeing by observation, after 1 hour” value (swine ear skin; Exp 1.10, 20 mg/ml in ethanol + 30% ddw, dried color + gel, current limited to 335 mA (500 μA/cm^2), skin without Stratum Corneum, after 1 hour) was “hour uniform dyeing was”, the “Uniformity of the dyeing by observation” value (swine ear skin; [5]) was “Spot dyeing but after 1” and the “Uniformity of the dyeing by observation” value (swine ear skin; [6]) was “Spot dyeing”. For the same compound, the “Uniformity of the dyeing by observation” value (swine ear skin; Exp 1.9, 20 mg/ml in ethanol + 30% ddw, dried color + gel, current limited to 335 mA (500 μA/cm^2), skin cleaned with 70% ethanol, full skin) was “Spot dyeing”.
